Results are given in words; binding and its absence hold for the method and conditions named. Binding seen in cells or lysates may run through a third protein. Binding calls can cover weak binding; strength is not graded here.
Biological target: RHBDL2 deletion mutant ΔN internal (mouse) (UniProt A2AGA4)
Test: co-IP; HA antibody-coupled beads, 2-3 h at 4°C, lysates of HEK293 cells co-expressing 3xHA-RHBDL2 (WT or SA) and V5-hOrai1 forms for 24 h; 1% Triton X-100, 150 mM NaCl, 50 mM Tris-HCl pH 7.4; blotted for V5 and HA; in Figure 7D cells were kept for 5 min before lysis in 2 mM Ca2+ or in Ca2+-free solution with 1 mM EGTA

The chains behind the UniProt entries cited, without tags or fusion partners. Where a name states a change or a piece, a line headed by the entry shows the natural chain unless it says otherwise.
UniProt A2AGA4: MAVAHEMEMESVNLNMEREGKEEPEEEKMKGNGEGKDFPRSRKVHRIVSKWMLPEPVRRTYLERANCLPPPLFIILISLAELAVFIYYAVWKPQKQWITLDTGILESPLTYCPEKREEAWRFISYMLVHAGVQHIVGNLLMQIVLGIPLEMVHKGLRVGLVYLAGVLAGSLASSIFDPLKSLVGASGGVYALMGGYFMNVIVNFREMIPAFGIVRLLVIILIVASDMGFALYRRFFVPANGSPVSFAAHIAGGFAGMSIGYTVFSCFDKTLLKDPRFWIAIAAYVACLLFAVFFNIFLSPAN
UniProt Q96D31: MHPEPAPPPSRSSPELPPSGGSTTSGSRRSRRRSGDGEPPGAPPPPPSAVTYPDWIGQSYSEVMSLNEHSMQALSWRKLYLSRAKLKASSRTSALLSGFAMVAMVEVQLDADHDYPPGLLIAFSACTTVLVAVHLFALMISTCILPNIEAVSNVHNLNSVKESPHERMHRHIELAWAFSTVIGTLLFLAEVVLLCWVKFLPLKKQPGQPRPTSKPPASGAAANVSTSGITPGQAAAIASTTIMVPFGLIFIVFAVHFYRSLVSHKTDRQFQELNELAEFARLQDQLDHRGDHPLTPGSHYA

Q: How did the binding turn out when “V5-hOrai1 (wild type) (from UniProt Q96D31 1-301)” was run?
A: binds

Biological target: 3xHA-RHBDL2-SA (serine-to-alanine catalytic mutant of RHBDL2) (mouse) (UniProt A2AGA4)
Test: as above

Q: How did the binding turn out when “V5-hOrai1 G98S (from UniProt Q96D31 1-301)” was run?
A: binds

Q: For “V5-hOrai1 R91W (from UniProt Q96D31 1-301)”, which binding is on record?
A: binds weakly

Q: With “V5-hOrai1 V102A (from UniProt Q96D31 1-301)” as the substance, how does the binding read?
A: binds

Q: With “V5-hOrai1 (wild type) (from UniProt Q96D31 1-301)” as the substance, how does the binding read?
A: binds

Q: For “V5-hOrai1 H134T (from UniProt Q96D31 1-301)”, which binding is on record?
A: binds

Q: For “V5-hOrai1 G98C (from UniProt Q96D31 1-301)”, which binding is on record?
A: binds weakly

Q: Which binding does the source give for “V5-hOrai1 H134W (from UniProt Q96D31 1-301)” here?
A: binds weakly

Q: “V5-hOrai1 H134S (from UniProt Q96D31 1-301)” was tested. Which binding did it give?
A: binds

Q: How did the binding turn out when “V5-hOrai1 H134V (from UniProt Q96D31 1-301)” was run?
A: binds

Q: Which binding does the source give for “V5-hOrai1 F99Y (from UniProt Q96D31 1-301)” here?
A: binds

Q: How did the binding turn out when “V5-hOrai1 H134A (from UniProt Q96D31 1-301)” was run?
A: binds

Biological target: RHBDL2 with deletion of the initial 31 amino acids of the cytoplasmic domain (mouse) (UniProt A2AGA4)
Test: as above

Q: “V5-hOrai1 (wild type) (from UniProt Q96D31 1-301)” was tested. Which binding did it give?
A: binds

Reference: paper PMC8657799
